Assay [1] has as its target T1, Rap1 (repressor/activator site binding protein 1), recombinant (S. cerevisiae) (UniProt P11938).
T1 sequence: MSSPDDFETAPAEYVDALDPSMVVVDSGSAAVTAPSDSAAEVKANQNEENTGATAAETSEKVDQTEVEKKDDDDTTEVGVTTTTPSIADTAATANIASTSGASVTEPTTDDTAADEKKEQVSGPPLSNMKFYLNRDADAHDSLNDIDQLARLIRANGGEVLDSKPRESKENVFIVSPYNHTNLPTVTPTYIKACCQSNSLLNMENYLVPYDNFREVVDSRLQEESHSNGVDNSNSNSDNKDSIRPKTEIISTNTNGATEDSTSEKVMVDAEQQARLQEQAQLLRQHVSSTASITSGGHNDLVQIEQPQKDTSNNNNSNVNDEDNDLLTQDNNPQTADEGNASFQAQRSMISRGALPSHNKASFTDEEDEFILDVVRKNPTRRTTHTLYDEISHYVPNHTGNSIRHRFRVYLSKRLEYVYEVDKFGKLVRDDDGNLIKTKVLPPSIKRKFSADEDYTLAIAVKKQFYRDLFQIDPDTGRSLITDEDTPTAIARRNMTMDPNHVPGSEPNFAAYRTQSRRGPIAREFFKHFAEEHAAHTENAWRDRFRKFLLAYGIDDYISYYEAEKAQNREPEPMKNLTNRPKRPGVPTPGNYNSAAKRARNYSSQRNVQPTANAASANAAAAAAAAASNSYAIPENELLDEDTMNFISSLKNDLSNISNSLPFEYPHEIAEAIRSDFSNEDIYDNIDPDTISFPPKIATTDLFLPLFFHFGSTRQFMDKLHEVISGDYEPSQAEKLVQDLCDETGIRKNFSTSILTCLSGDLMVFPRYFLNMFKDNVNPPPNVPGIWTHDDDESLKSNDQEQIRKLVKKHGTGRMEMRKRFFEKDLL
Description: pull-down; Ni-pulldown assay in vitro with recombinant Rap1 and Fpr1 proteins; no data shown, no methods given.

Protein sequences, listed by entry. Tags and fused reporters are not part of them.
UniProt P20081: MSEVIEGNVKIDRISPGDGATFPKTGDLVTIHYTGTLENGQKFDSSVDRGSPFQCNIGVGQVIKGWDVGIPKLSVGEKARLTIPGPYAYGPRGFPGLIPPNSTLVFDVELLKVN

Assay [2] has as its target T2, Rap1, two-hybrid fusion (S. cerevisiae) (UniProt P11938).
T2 sequence: T1 sequence
Description: two-hybrid; two-hybrid assay in vivo; no data shown, no methods given.

No constants are given. Whether binding was seen depends on the method and setting. For some assays here: Binding seen in cells or lysates may run through a third protein. For some assays here: Tags and fused reporters may be left off the sequences shown.

As to “Fpr1 (FK506-sensitive proline rotamase 1), recombinant (from UniProt P20081 1-114)”, the binding entry in assay [1] is reported as “no binding”.
Regarding “Fpr1, two-hybrid fusion (from UniProt P20081 1-114)”, the binding result in assay [2] was “no binding”.

Values taken from article PMC7357790.
